The results in this text go back to US20160289339A1.

By UniProt entry, the sequences of proteins in these tests, tags left out. Where a name states a change or a piece, a line headed by the entry shows the natural chain unless it says otherwise.
UniProt P01876: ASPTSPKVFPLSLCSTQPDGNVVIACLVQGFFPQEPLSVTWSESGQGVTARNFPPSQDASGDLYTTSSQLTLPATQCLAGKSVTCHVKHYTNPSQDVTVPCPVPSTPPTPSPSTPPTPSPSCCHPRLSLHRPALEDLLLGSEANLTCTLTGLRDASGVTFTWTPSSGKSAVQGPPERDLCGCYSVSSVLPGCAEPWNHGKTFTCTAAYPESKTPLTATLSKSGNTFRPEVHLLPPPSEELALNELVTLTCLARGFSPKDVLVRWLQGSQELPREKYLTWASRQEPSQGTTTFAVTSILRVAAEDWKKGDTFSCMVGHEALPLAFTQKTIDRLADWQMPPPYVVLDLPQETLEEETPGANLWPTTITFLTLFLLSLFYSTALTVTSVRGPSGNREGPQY

The target in this experiment is mα1.FcL-456C expressed on Ramos cells (human) (UniProt P01876). Kind of experiment: flow cytometry on Ramos/mα1.FcL-456C cells, 1 and 10 µg/ml. On the technique in general: Flow cytometry measures light scatter and fluorescence of single cells or particles in a stream.

These are yes or no findings as the source states them, for the method shown. Some entries that bind do so weakly or less than the wild type.

B1: anti-migis-α mAb 8G7 (antibody, V domains shown)
VH: EVQLQESGPSLVKPSQTLSLTCSVTGDSITNGYWNWIRKFPGNKLEYMGYISYSGSTYYNPSLKSRIFITRDTSKNQYYLQLNSVTTEDTAIYYCARWLGGRAYWGQGTTLIVSS
VL: DIVMTQSQKFMSTSVGDRVSVTCKASQNVGTNVVWYQQKPGQSPKTLIYSASRRFSGVPDRFTGSGSGTDFTLTISNVQSEDLAEYFCQQYNSYPLTFGAGTKLELK
In the case of B1, the binding result is on record as “binds”.
